Source: paper PMC8135044, “Lytic transglycosylase MltG cleaves in nascent peptidoglycan and produces short glycan strands” (The Cell Surface, 2021)
No constants are given. Whether binding was seen depends on the method and setting. Binding can be weak; no strength is given. Sequences can lack the tags named with a protein.

Protein sequences, listed by entry. Tags and fused reporters are not part of them. Lines headed by an entry give the natural chain unless they say otherwise; changes in a name come on top.
UniProt P39793: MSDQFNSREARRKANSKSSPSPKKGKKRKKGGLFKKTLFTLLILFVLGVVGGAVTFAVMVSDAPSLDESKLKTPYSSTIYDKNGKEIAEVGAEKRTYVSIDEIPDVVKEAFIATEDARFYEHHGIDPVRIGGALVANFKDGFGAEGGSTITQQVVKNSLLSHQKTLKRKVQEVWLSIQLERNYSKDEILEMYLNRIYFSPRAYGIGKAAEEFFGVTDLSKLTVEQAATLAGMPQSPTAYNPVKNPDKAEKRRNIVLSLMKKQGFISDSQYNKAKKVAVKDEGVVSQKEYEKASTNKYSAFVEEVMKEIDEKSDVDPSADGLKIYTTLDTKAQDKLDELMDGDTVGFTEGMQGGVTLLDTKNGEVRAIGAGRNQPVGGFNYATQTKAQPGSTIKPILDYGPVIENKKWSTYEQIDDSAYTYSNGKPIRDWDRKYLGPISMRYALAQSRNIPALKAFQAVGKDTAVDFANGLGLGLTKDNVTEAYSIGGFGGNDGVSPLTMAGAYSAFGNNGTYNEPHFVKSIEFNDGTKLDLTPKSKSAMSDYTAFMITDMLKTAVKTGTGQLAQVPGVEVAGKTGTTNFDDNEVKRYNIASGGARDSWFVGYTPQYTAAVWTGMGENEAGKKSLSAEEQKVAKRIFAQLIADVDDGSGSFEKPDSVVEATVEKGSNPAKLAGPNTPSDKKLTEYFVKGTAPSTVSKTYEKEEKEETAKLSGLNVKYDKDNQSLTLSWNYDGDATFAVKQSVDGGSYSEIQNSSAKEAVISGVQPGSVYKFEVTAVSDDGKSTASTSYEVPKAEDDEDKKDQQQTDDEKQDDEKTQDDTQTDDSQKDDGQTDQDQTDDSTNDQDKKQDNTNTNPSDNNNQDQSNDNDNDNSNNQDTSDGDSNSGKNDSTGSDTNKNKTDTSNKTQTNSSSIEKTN

Biological target: T1, hexahistidine tagged BsMltG (His-BsMltG) (Bacillus subtilis) (UniProt O34758)
T1 sequence: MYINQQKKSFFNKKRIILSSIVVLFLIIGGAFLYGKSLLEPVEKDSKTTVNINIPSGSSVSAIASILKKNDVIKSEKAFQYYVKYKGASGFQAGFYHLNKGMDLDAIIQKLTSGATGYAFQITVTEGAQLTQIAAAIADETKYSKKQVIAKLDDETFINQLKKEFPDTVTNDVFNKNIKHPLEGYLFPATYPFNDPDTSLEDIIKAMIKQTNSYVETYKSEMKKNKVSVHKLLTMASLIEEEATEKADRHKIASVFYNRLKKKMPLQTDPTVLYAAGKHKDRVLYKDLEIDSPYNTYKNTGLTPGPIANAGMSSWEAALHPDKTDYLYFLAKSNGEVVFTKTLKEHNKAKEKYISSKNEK
Test: pull-down; proteins 1 uM each in 10 mM Hepes/NaOH, 10 mM MgCl2, 150 mM NaCl, 0.05% Triton X-100, pH 7.5; Ni-NTA beads overnight at 4 C; wash with 500 mM NaCl, 50 mM imidazole; Coomassie-stained SDS-PAGE; His-BsMltG as bait; both purified

Q: BsPBP1 (from UniProt P39793) (enzyme) was tested. Which binding did it give?
A: binds
